Measurements reported in paper PMC8038999.
No constants are given. Whether binding was seen depends on the method and setting. Binding seen in cells or lysates may run through a third protein. Some entries that bind do so weakly or less than the wild type.

Biological target: T1, LecA-biotin (biotinylated Pseudomonas aeruginosa lectin LecA) (Pseudomonas aeruginosa) (UniProt Q05097)
T1 sequence (chain, biotin (NHS-ester conjugation; sites not stated)): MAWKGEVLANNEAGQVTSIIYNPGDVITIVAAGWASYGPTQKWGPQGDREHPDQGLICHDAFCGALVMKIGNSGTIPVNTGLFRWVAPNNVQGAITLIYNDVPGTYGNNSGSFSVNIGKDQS
Experiment: pull-down; H1299 cells treated with 100 nM LecA-biotin for indicated times, lysed (25 mM Tris/HCl pH 7.4, 150 mM NaCl, 1 mM EDTA, 1% NP40, 5% glycerol), magnetic streptavidin beads 3 h at 4 °C, eluates immunoblotted; only the target purified

B1: flotillin-2 (protein, UniProt Q14254 1-428)
chain: MGNCHTVGPNEALVVSGGCCGSDYKQYVFGGWAWAWWCISDTQRISLEIMTLQPRCEDVETAEGVALTVTGVAQVKIMTEKELLAVACEQFLGKNVQDIKNVVLQTLEGHLRSILGTLTVEQIYQDRDQFAKLVREVAAPDVGRMGIEILSFTIKDVYDKVDYLSSLGKTQTAVVQRDADIGVAEAERDAGIREAECKKEMLDVKFMADTKIADSKRAFELQKSAFSEEVNIKTAEAQLAYELQGAREQQKIRQEEIEIEVVQRKKQIAVEAQEILRTDKELIATVRRPAEAEAHRIQQIAEGEKVKQVLLAQAEAEKIRKIGEAEAAVIEAMGKAEAERMKLKAEAYQKYGDAAKMALVLEALPQIAAKIAAPLTKVDEIVVLSGDNSKVTSEVNRLLAELPASVHALTGVDLSKIPLIKKATGVQV
binding: binds
